Out of some 52,000 sequences screened, about 210 (0.4%) were called active.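 How the source made its calls: active means gene whose silencing raises cell survival under the drug, median off-target-corrected z-score across its silencing RNAs 2 or more; inactive means the rest.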 This is one part of the list.
Experiment: Resistance to Poly (ADP-Ribose) Polymerase inhibitor: Gene Identification via Genome-wide siRNA Screen
Details: mouse BRCA2 R2336H ES cells, olaparib, CellTiter-Glo viability; stronger effect = higher value
Summary of the method: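 Mouse BRCA2 R2336H ES cells were reverse-transfected with siRNA (20 nM final), treated at 48 h with 500 nM olaparib, and read by CellTiter-Glo after 72 h. Scores: MAD-based z per siRNA, median per gene, seed off-target correction.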

Row | Sequence | z-score
1 | GGCUGUGAUUGGCAAUCUATT against 6430548M08Rik | inactive: 1.17
2 | GGACCCAUUCUGUGGGUAATT against Zfpn1a2 | inactive: 0.987
3 | GGUCUGAGCUCUCAAAAUGTT against Neurod4 | inactive: 0.679
4 | GGAUUCUAGGAGAGAAUCATT against Lman1l | inactive: -0.346
5 | GCAAACCACUUACACUAAUTT against Spry4 | inactive: 3.14
6 | GGACAUGACAUUCCUAUCCTT against C920008G01Rik | inactive: -0.21
7 | GGAAACAGAUUUAAAGUGATT against AB041550 | inactive: 1.49
8 | GGGAUCGAAUGGUUCAGGUTT against Osbpl9 | inactive: -1.76
9 | GGAAAAUUCAGUUUAAUCCTT against 2410004H05Rik | inactive: 0.66
10 | CCAGUCGACUACUAUGCCATT against Sstr1 | inactive: 0.153
11 | GGAACUUUUGGCCAGCAAGTT against Opa1 | inactive: 0.518
12 | GCUUCAAACCUAAUACAUCTT against Mc3r | inactive: 0.793
13 | CCAAACAAUGUUGUUUAGGTT against 2900002H16Rik | inactive: 1.29
14 | CCAAAGGCCAAAUAACAGUTT against Timm17a | inactive: -1.13
15 | GGAGUUUAGAAGGGAGGAATT against Btbd12 | inactive: -2.29
16 | CCUUCCGUUUAGUUUUAUGTT against A230083H22Rik | inactive: 0.638
17 | GGUCUCUUCAUGAUGGAUGTT against Akt1s1 | inactive: 1.93
18 | GGAUGCUAAUUCAAGUCUUTT against Slc1a7 | inactive: -0.42
19 | CCUUCUCUAUGAUCAGGCUTT against Doc2a | inactive: 0.38
20 | GGUAGACAACAGGUUGUUGTT against Crhbp | inactive: 0.567
21 | GCUUUUUGGAGGAAUUCACTT against LOC547347 | inactive: 2.97
22 | GGAGGUGACCUGUAAUCCCTT against Msmb | inactive: 0.268
23 | GGUCUGUGAAAUGAAAAAUTT against 1110064N10Rik | inactive: -1.58
24 | GGAUUUCAUUCCAAACAUGTT against Hbs1l | inactive: 1.14
25 | GGUCACGGAACAAAAAACCTT against D230019K20Rik | inactive: -0.254
26 | AACUAUACGUCCGCUCACUTT against 1700013L23Rik | inactive: -0.325

Row | Sequence | z-score
27 | GGACGAGGUCCUGUCCUUUTT against Ccbp2 | inactive: 0.571
28 | GCUUGGUAAAAUGAAAGUCTT against Klhl12 | inactive: 0.771
29 | GCCAAAGUGUGUGUUGAAGTT against Gng11 | inactive: 0.934
30 | CCCUCUCUACGAUGACUCUTT against 9130213B05Rik | inactive: 0.232
31 | GGAAGAACCACCUUCAUGCTT against Btn2 | inactive: -2.22
32 | GGCAUUGCUGACUACAAACTT against Tcn2 | inactive: -0.219
33 | GGCCUUGAUGGUACCAUGUTT against Uqcr | inactive: -2.11
34 | GGAGCCAAGUGUGAUUACATT against Pias3 | active: -1.38
35 | CCGUCAACUUCUAGAUGGUTT against Trpm5 | inactive: -0.761
36 | GGGAUUGAGUUUGUCCUAUTT against Olfr453 | inactive: 0.525
37 | GGGAAGGCAAUUUAAAAAATT against 4931428D14Rik | inactive: -0.902
38 | GCGUAGGUCAUCCUUGUAATT against Samd4 | inactive: 0.525
39 | GCCAACAGAAAUAAGCCUUTT against Sorcs1 | inactive: -0.456
40 | GCGAAAUGCACCAGAUCAGTT against Gm295 | inactive: 0.111
41 | GAGAACCAGGCUAUGUCUGTT against Defcr-rs10 | inactive: -0.0777
42 | GGAGAGACCAGAAUGGUAUTT against E330009P21Rik | inactive: -0.543
43 | GGAGACGAUGGAAUAUUUGTT against Snx3 | inactive: 1.14
44 | GGUUCCUGUAUCACAUGCGTT against BC016235 | inactive: 0.394
45 | GGUCGUAAGUUUCAUAAUUTT against Aqp3 | inactive: -0.37
46 | GGACAAGGGCACAUCCAGUTT against Gtf2h4 | inactive: -3.19
47 | GGACGAAAAGGAAUAUAUGTT against Cul1 | inactive: -0.573
48 | GGAAGUUUUAGUCCCUCUUTT against 4632415L05Rik | inactive: 0.0229
49 | CGUCUCUAUAUACAUACAATT against 9930038B18Rik | inactive: -1.29
50 | CGUAUUAACGACAUAAGAGTT against Nckap1 | inactive: 0.301
51 | GGACCUGUUCAUUUUUGUCTT against Pdgfrb | inactive: 0.436
52 | GAUCUUUCGACACAUCACCTT against MGC25972 | inactive: -0.415

Fetched one by one from above, 2 records:
Row | Sequence | z-score
34 | GGAGCCAAGUGUGAUUACATT against Pias3 | active: -1.38
33 | GGCCUUGAUGGUACCAUGUTT against Uqcr | inactive: -2.11

(list continues)

Row | Sequence | z-score
53 | GGACAAAACAUGGAAAAGCTT against 4930486L24Rik | inactive: -0.096
54 | GGUUCUUGUGGAUCUUACCTT against Olfr1424 | inactive: 0.133
55 | GGCACUACUAUCAAGACAGTT against 4933436I01Rik | inactive: -0.409
56 | GGUGAAUGCAGAGCUUUCATT against 2010301N04Rik | inactive: -0.961
57 | GGGUAAUUUUUCACAACAGTT against 1110051M20Rik | inactive: 0.337
58 | GGAAGCAGAUGACUGGGAATT against H2-T10 | inactive: -0.0996
59 | GCUGUAUCUUGUGAACAGCTT against Rad9b | inactive: 0.379
60 | GGAUGUGAUCAUAGCAUGGTT against 6030458H05 | inactive: -0.0195
61 | GGAGUUUAUGAAAUUCAACTT against Fcgrt | inactive: -0.154
62 | CCUACUCACAGUAAUUAAGTT against Trpm8 | inactive: 0.0647
63 | GGUAUUCCUCCCUGAGCAUTT against 6430604K15Rik | inactive: 1.28
64 | GUGUAUCUUAUGCAAUGAUTT against Olfr582 | inactive: -1.63
65 | CCCUGAUAGUUGCUUGUACTT against E330021D16Rik | inactive: -0.969
66 | GGCAGAGAGCAGAGACAUCTT against BC005662 | inactive: -1.6
67 | CCAGACGCGUAACUGCUACTT against Cox6b2 | inactive: 0.404
68 | GGUGGAAAACAACACCUUATT against A530046H20Rik | inactive: -0.0142
69 | GCUAUGAGACAAGGCUUUCTT against E430029F06 | inactive: 0.0993
70 | CCGAUCAAUGGAUUGUUUUTT against 0610012D09Rik | inactive: 0.387
71 | GCGAAUCUUGCUUCUGACCTT against Hist1h4h | inactive: -0.696
72 | GGAAUUUUCUCGAUUUCACTT against Pde6b | inactive: 0.862
73 | GGUCACUAUACCUGGUAGATT against Aire | inactive: -1.12
74 | GGCACCAGCUCAUUAUCAATT against Ppyr1 | inactive: 2.79
75 | GCAUCAUUAAGUGCUACCGTT against Pcdhac2 | inactive: 1.86
76 | GGAAUCUGCUUGAAUAUGGTT against 1810020E01Rik | inactive: 1.39
77 | GCCCAAGCUUUUAUCAAGATT against Frmd4b | inactive: 0.225
78 | GCAGCGGUGAACAAUAUAATT against 1700123K08Rik | inactive: -1.41

Part of the list above, with each value named.
GGACAAAACAUGGAAAAGCTT against 4930486L24Rik
  z-score: inactive: -0.096
GGUUCUUGUGGAUCUUACCTT against Olfr1424
  z-score: inactive: 0.133
GGUGAAUGCAGAGCUUUCATT against 2010301N04Rik
  z-score: inactive: -0.961
GGAUGUGAUCAUAGCAUGGTT against 6030458H05
  z-score: inactive: -0.0195

Nos. 57 through 58, reprinted for reference:
Row | Sequence | z-score
57 | GGGUAAUUUUUCACAACAGTT against 1110051M20Rik | inactive: 0.337
58 | GGAAGCAGAUGACUGGGAATT against H2-T10 | inactive: -0.0996

Continuation:

Row | Sequence | z-score
79 | GGUUAGAAGGAACUGGGCATT against 3110062M04Rik | inactive: -0.369
80 | GGAUGCUGGACCAAAAUUGTT against A630085K21 | inactive: 1.15
81 | GGACCUUUCCGAGUCCAUUTT against 1110014C03Rik | inactive: 0.482
82 | GGCUUUAAGAUCGAUACUATT against Hrpt2 | inactive: -2.22
83 | GCCUCUGUCAAGUCUUGGATT against Ftl1 | inactive: -3.01
84 | GGUAAGAGAGGUUUUUUCCTT against Synpo2l | inactive: 0.173
85 | GGGAGAGUCAAACAGAGCATT against Dio1 | inactive: 1.4
86 | GGACCAUAAAACAGUCUGATT against 2310067E08Rik | inactive: -0.852
87 | GCUAUUGAAACUUAUGAGUTT against 2610019N13Rik | inactive: -1.91
88 | GGGCUAGUUUCUUUUUUUGTT against 9530066K23Rik | inactive: -0.112
89 | GCUCUAAGGGCUGUUGCUATT against 0610037P05Rik | inactive: 0.219
90 | CCUAGAAGCUAAUUACCAATT against Saa4 | inactive: -0.95
91 | CCUGUCUAAGCCCUUGGUATT against Mpst | inactive: -0.251
92 | GCUUCUUAAAGAUGCCGUCTT against Lgi4 | inactive: -0.649
93 | GAGGUUUGGCAGAAGUGCATT against Npff | inactive: -0.727
94 | GCUAAAGAUGAGCGUACAUTT against Myh10 | inactive: 1.79
95 | GCCCACGUUUUAAGUCUACTT against Ap1s3 | inactive: -1.51
96 | GUCUCUUCUAAGCUCCAUCTT against Olfr486 | inactive: 0.655
97 | GGCUGCACAAAACGAGAUCTT against Tcirg1 | inactive: 0.586
98 | GCUCGUUGCAUAAAAAGAGTT against Creg2 | inactive: -0.507
99 | GGAUAGCAUACAGUUGUAATT against Gabpb2 | inactive: -0.847
100 | GCCAGUACUUAGGUCUAAGTT against Mrps25 | inactive: -0.738
101 | GGAGUCUGAAGAUGACAUGTT against Rplp1 | inactive: -2.14
102 | GCAUAAUAGUAAAUGCCAUTT against Smyd1 | inactive: 0.789

Source: PubChem BioAssay AID1347423 (Functional Genomics Laboratory (NCATS/FGL), 2020)
